Data published in paper PMC4792602.
No constants are given. Whether binding was seen depends on the method and setting. In cells and extracts the contact can be indirect. Some binding calls cover weakened binding; strength is not graded here. Where a sequence is shown, tags or fusion partners need not be part of it.

The chains behind the UniProt entries cited, without tags or fusion partners.
UniProt P68104: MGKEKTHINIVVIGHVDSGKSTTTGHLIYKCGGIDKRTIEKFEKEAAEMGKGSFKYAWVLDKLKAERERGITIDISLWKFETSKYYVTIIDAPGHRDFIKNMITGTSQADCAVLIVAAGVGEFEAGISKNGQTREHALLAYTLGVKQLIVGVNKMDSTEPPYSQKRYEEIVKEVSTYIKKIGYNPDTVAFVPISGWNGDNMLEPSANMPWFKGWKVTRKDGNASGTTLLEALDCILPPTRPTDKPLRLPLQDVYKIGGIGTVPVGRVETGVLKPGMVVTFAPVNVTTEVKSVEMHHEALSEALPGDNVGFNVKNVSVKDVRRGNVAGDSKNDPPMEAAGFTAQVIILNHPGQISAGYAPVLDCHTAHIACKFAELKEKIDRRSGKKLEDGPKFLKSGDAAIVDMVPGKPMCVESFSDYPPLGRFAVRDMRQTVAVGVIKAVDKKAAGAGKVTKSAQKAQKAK
UniProt P11142: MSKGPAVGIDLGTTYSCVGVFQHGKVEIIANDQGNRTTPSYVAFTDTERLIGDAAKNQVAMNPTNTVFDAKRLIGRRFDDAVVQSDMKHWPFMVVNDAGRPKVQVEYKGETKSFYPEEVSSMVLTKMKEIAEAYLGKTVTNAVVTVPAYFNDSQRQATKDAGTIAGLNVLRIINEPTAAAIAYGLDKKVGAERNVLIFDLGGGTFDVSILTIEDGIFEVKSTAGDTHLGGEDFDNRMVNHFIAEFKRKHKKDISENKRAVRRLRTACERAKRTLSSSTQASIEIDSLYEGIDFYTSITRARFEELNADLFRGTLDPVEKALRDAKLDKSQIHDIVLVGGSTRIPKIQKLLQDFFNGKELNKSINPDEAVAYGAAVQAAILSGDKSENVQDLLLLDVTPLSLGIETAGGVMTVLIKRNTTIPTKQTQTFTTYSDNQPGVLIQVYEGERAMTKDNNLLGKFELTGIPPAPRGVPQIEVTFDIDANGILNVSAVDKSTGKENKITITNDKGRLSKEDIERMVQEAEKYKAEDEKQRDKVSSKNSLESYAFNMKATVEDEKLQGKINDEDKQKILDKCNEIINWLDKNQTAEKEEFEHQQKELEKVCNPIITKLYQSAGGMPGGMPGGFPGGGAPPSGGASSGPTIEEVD

How the values were obtained:
[1] = molecular target: EEF1A1 protein [Homo sapiens] (human) (UniProt P68104); experiment: co-IP; IP with anti-PKM2, anti-HSPA1A, anti-Hsc70 or anti-EEF1A1 from lysates of Flag-HA-TG2 2fTGH cells; steady state, 4 h starvation or MG132 for 4 h; lysis buffer 10 mM Tris-HCl pH 8.0, 150 mM NaCl, 10% glycerol, 0.5% NP40
[2] = molecular target: Hsc70 (human (endogenous in 2fTGH)) (UniProt P11142); experiment: as above

binding [1]: binds
binding [2]: binds
B1: Flag-hemagglutinin (HA)-tagged transglutaminase type 2 (enzyme, UniProt P21980 1-687)
chain: MAEELVLERCDLELETNGRDHHTADLCREKLVVRRGQPFWLTLHFEGRNYEASVDSLTFSVVTGPAPSQEAGTKARFPLRDAVEEGDWTATVVDQQDCTLSLQLTTPANAPIGLYRLSLEASTGYQGSSFVLGHFILLFNAWCPADAVYLDSEEERQEYVLTQQGFIYQGSAKFIKNIPWNFGQFEDGILDICLILLDVNPKFLKNAGRDCSRRSSPVYVGRVVSGMVNCNDDQGVLLGRWDNNYGDGVSPMSWIGSVDILRRWKNHGCQRVKYGQCWVFAAVACTVLRCLGIPTRVVTNYNSAHDQNSNLLIEYFRNEFGEIQGDKSEMIWNFHCWVESWMTRPDLQPGYEGWQALDPTPQEKSEGTYCCGPVPVRAIKEGDLSTKYDAPFVFAEVNADVVDWIQQDDGSVHKSINRSLIVGLKISTKSVGRDEREDITHTYKYPEGSSEEREAFTRANHLNKLAEKEETGMAMRIRVGQSMNMGSDFDVFAHITNNTAEEYVCRLLLCARTVSYNGILGPECGTKYLLNLNLEPFSEKSVPLCILYEKYRDCLTESNLIKVRALLVEPVINSYLLAERDLYLENPEIKIRILGEPKQKRKLVAEVSLQNPLPVALEGCTFTVEGAGLTEEQKTVEIPDPVEAGEEVKVRMDLLPLHMGLHKLVVNFESDKLKAVKGFRNVIIGPA
